Test results reported in US4104397A, “Spiro (1,3-dioxolane-4,3') quinuclidine compounds” (The Purdue Frederick Company, priority 1975, dated 1978).

Assay: LD50 in mice, Table 3
Details: mouse, in vivo, sc

**Q.** For `CN1[C@@H]2CC[C@H]1CC(OC(=O)C(CO)c1ccccc1)C2` (stereo partly shown) [Atropine Sulphate, reference compound], which LD50 is on record?
**A.** > 100 mg/kg
